How the values were obtained:
[1] = target: T1, human interleukin-4 receptor alpha chain (IL-4Rα) (human, UniProt P24394 26-825); experiment: cell-based or functional assay
[2] = target: T1, human interleukin-4 receptor alpha …; experiment: cell-based or functional assay; remark: listed apart in the source

B1: PRS-060/AZD1402 (anti-IL-4 receptor alpha human tear lipocalin mutein) (designed binder)
chain: ASDEEIQDVSGTWYLKAMTVDSRCPRAVYNSVTPMTLTTLEGGNLEAKFTAQRKGRWQKYKLVLEKTDEPGKYTASGGRHVAYIIRSHVKDHYIFHSEGLCPGQPVPGVWLVGRDPKNNLEALEDFEKAAGARGLSTESILIPRQSETSSPGSD
[1]
  IC50 of ex vivo inhibition of IL-4 stimulated STAT6 phosphorylation in CD3+ T cells (PK/PD analysis, whole blood of healthy subjects after single inhaled doses, 10 ng/ml human IL-4 for 15 minutes): 0.35 nM
[2]
  Eotaxin-3 IC50 (nM): inhibition of IL-4 induced eotaxin-3 release, human whole blood in vitro, 8 ng/mL IL-4 for 24 hours, ELISA: 2.1 nM
  MDC IC50 (nM): inhibition of IL-4 induced MDC release, human whole blood in vitro, 8 ng/mL IL-4 for 24 hours, ELISA: 2 nM
  TARC IC50 (nM): inhibition of IL-4 induced TARC release, human whole blood in vitro, 8 ng/mL IL-4 for 24 hours, ELISA: 1.3 nM
  pSTAT IC50 (nM): inhibition of IL-4 stimulated STAT6 phosphorylation in CD3+ T cells, human whole blood in vitro, 8 ng/mL IL-4 for 15 minutes, FACS: 1.3 nM
